The other results are listed elsewhere or left out.
The sequences below were run against OsWRKY34 (Oryza sativa, UniProt Q0JBA9 1-250) (assay: protein-binding microarray (RPBM); PBS, 2% BSA, 51.3 ng/ul salmon testes DNA, 50 uM zinc acetate, 200 nM TF, 25 C, 1 h; high values mean tight binding). Details: protein: recombinant; tags: N-terminal polyhistidine and DsRed monomer fusion (pET32a); label: CyDye5-dUTP incorporated in the synthesized complementary strand; 3' TTTTT single-stranded linker to array surface; dsDNA, one strand shown.
Method in brief: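 An Axon 4000B scanner gave the binding signal as per-feature fluorescence intensity in arbitrary units. This followed washing of a custom Agilent array that had been incubated for 1 h at 25 °C with 200 nM protein in PBS, 2% BSA, salmon testes DNA and 50 µM zinc acetate. The proteins were transcription factors fused at the N-terminus to polyhistidine and DsRed, expressed in E. coli BL21-CodonPlus and purified on Ni–NTA.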

Sequences of proteins named here, by UniProt entry; tags and fusion partners are left off.
UniProt Q0JBA9, entry or part of it: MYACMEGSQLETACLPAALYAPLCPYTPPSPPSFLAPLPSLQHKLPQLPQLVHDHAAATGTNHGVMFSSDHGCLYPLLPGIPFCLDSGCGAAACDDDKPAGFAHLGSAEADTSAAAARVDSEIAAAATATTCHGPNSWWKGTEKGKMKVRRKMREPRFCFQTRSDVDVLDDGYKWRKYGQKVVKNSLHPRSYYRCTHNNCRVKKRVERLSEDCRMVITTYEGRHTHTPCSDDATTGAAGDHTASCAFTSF

| Sequence | binding signal |
| --- | --- |
| TTCCTCTCGGGGTTGGCCTCCCGCCGCCAGGTCTCCTCCTCGGAGTCACCTAGTGCAG | 8210 fluorescence intensity (a.u.) |
| CGGCGGCGTCCGAGTGTGTGTGTGTATGTAATGGACGCCGCGGAGTCACCTAGTGCAG | 8640 fluorescence intensity (a.u.) |
| GCATCCGTGCCATTTCATCCCTATTTAATCGTCACATCACCGGAGTCACCTAGTGCAG | 10600 fluorescence intensity (a.u.) |
| CCCCACCACCGATCTCCGCCGTCCGTCGCCGCCCTCGCCGCGGAGTCACCTAGTGCAG | 9020 fluorescence intensity (a.u.) |
| CCCCATTACATCCCACCTTATTCTTGCAACCAAACACTACCGGAGTCACCTAGTGCAG | 8260 fluorescence intensity (a.u.) |
| CGCTGGACGTACGCCACATTGCGCCCATCTCTCTCGCTCTCGGAGTCACCTAGTGCAG | 8290 fluorescence intensity (a.u.) |
| CGCTCACCTCATTCTCTCGCCGCCACCACTCGCCTCCGTCCGGAGTCACCTAGTGCAG | 10800 fluorescence intensity (a.u.) |
| TTTTGGTCCATGTTTGCTGCACTGATTTGGTGGACAACTCCGGAGTCACCTAGTGCAG | 8960 fluorescence intensity (a.u.) |
| ATGGTGTACCCTGTTCTTTCTACTTGGTTACGTCAATTTCCGGAGTCACCTAGTGCAG | 8650 fluorescence intensity (a.u.) |
| TTTTCTTTTCTTTTCTTTTTTGCATGTTTGGGCGGCGGCGCGGAGTCACCTAGTGCAG | 8330 fluorescence intensity (a.u.) |
| GAAAGCCGCCGCCGCCGCCGCCCTTCTACTTCCGCCGCCTCGGAGTCACCTAGTGCAG | 8270 fluorescence intensity (a.u.) |
| CATGATGACACGCGTTTTCTTTTTGTTCATGTCTCCTCGACGGAGTCACCTAGTGCAG | 12500 fluorescence intensity (a.u.) |
| TTAATCCCATTTGTATTTTTTCTCAAACTTTGTGGACTGTCGGAGTCACCTAGTGCAG | 8130 fluorescence intensity (a.u.) |
| AGGCTATGAGAGCGAACGTGGAGGCTCTTTTTTCTATTTCCGGAGTCACCTAGTGCAG | 8340 fluorescence intensity (a.u.) |
| CACAGTGCCTTATTTCAAAATGAAACTATTTCTTCACATACGGAGTCACCTAGTGCAG | 8020 fluorescence intensity (a.u.) |
| GTCGCCTCGTCTTGCCTCGCCTCGTCCAAGGTCAACGAGACGGAGTCACCTAGTGCAG | 8740 fluorescence intensity (a.u.) |
| TTAATGTGTTACGTTCGATTGATCCATCCAACCTACTTGCCGGAGTCACCTAGTGCAG | 8210 fluorescence intensity (a.u.) |
| CCATATGATCCGTTACCATATGTAACATGTGGTCACCTCACGGAGTCACCTAGTGCAG | 8650 fluorescence intensity (a.u.) |
| CCGCGACCACACACAGAACCCGCTCGGAAACACAAACATCCGGAGTCACCTAGTGCAG | 8940 fluorescence intensity (a.u.) |
| TCCGTCCGTCCTAGTCCAGTCAAACTTCTTACTCTTCCAACGGAGTCACCTAGTGCAG | 10200 fluorescence intensity (a.u.) |
| TCAATTTTTCCGTCACATCATTCCAATCTCTTCAATTTTCCGGAGTCACCTAGTGCAG | 9420 fluorescence intensity (a.u.) |

Part of the list above, bar-delimited.
Sequence | binding signal
CCCCACCACCGATCTCCGCCGTCCGTCGCCGCCCTCGCCGCGGAGTCACCTAGTGCAG | 9020 fluorescence intensity (a.u.)
CCCCATTACATCCCACCTTATTCTTGCAACCAAACACTACCGGAGTCACCTAGTGCAG | 8260 fluorescence intensity (a.u.)
CGCTGGACGTACGCCACATTGCGCCCATCTCTCTCGCTCTCGGAGTCACCTAGTGCAG | 8290 fluorescence intensity (a.u.)
CATGATGACACGCGTTTTCTTTTTGTTCATGTCTCCTCGACGGAGTCACCTAGTGCAG | 12500 fluorescence intensity (a.u.)
CCATATGATCCGTTACCATATGTAACATGTGGTCACCTCACGGAGTCACCTAGTGCAG | 8650 fluorescence intensity (a.u.)
TCCGTCCGTCCTAGTCCAGTCAAACTTCTTACTCTTCCAACGGAGTCACCTAGTGCAG | 10200 fluorescence intensity (a.u.)
TCAATTTTTCCGTCACATCATTCCAATCTCTTCAATTTTCCGGAGTCACCTAGTGCAG | 9420 fluorescence intensity (a.u.)

(listing goes on)

| Sequence | binding signal |
| --- | --- |
| CTCTCTCTCTATCACTCTGCTCAGCTCAAGTAGCCAGCTCCGGAGTCACCTAGTGCAG | 8040 fluorescence intensity (a.u.) |
| GGCGTATGTTGGCTTGTATATTGATCTTGTGTCTTGATCTCGGAGTCACCTAGTGCAG | 8950 fluorescence intensity (a.u.) |
| CAATCTATTGTGTGTTCATACCTTGTTATACCTAATTTTACGGAGTCACCTAGTGCAG | 9170 fluorescence intensity (a.u.) |
| GGGATCCCCTCCTTGTCCTGGATCTTCGCCTTCACGTTGTCGGAGTCACCTAGTGCAG | 8340 fluorescence intensity (a.u.) |
| AATCCATGGCTCCACACAATCTCTCCACCAACTCATTTCGCGGAGTCACCTAGTGCAG | 10100 fluorescence intensity (a.u.) |
| GATTCCTTGTTTTTCTTAGCTTTTTCAGCTGAGGCTCTCGCGGAGTCACCTAGTGCAG | 11300 fluorescence intensity (a.u.) |
| ACAGCCTATATACACTACTCACTCCGTCTCAGAATATAAGCGGAGTCACCTAGTGCAG | 8900 fluorescence intensity (a.u.) |
| ACCTTCCAATCCTATCAGATCATCGAACTCCTTAACCGAACGGAGTCACCTAGTGCAG | 8370 fluorescence intensity (a.u.) |
| ACGAAAACCCCAAATTACCCTCGCACACCTCGGCTTGTTTCGGAGTCACCTAGTGCAG | 10000 fluorescence intensity (a.u.) |
| CAAGCTACCACCACCATCTTCTCCTTCTTCTTCCTCTCCTCGGAGTCACCTAGTGCAG | 8570 fluorescence intensity (a.u.) |
| TGTGTGTGCTATGATTTTTTTTCTTCTTCACCAGAACAAACGGAGTCACCTAGTGCAG | 14100 fluorescence intensity (a.u.) |
| TAGTGGTGCCTTTTACCTCCCATTGTTGTCCTTTGATAGGCGGAGTCACCTAGTGCAG | 8080 fluorescence intensity (a.u.) |
| CGGTCCCAGACCCTACCTGCCTGCTGCCGTGCCACTGAACCGGAGTCACCTAGTGCAG | 8620 fluorescence intensity (a.u.) |
| ATTTGCAAGTTCAATTTTGGCCCTTTTTTTGTGTGATTCACGGAGTCACCTAGTGCAG | 9550 fluorescence intensity (a.u.) |
| TTTTGTTTCTGATTTCAGCTATTCTTCTTCTTGCATCCCACGGAGTCACCTAGTGCAG | 9440 fluorescence intensity (a.u.) |
| ACCTAACTCATGATCCATTCCCATTCCCGTGCAATTTTTCCGGAGTCACCTAGTGCAG | 11700 fluorescence intensity (a.u.) |
| GGGGCGGGAGGGAGGGAGCGAATCTGAGGTGGTGGCTATGCGGAGTCACCTAGTGCAG | 13700 fluorescence intensity (a.u.) |
| CTGATTTGCGGGTTCCACATGGATTTTATTTTTTTGTTTCCGGAGTCACCTAGTGCAG | 11400 fluorescence intensity (a.u.) |
| TACTTTAAGCATAACTTTTCGTTTTTTATATTTGCACAAACGGAGTCACCTAGTGCAG | 9200 fluorescence intensity (a.u.) |
| CCCGACCATTTTCATTCCTACCTACAGCTACGAGGCACTTCGGAGTCACCTAGTGCAG | 10100 fluorescence intensity (a.u.) |
| GCTTTCTTTCTTGTTTTCAGACTTATTTTCCTGTTTCATTCGGAGTCACCTAGTGCAG | 13900 fluorescence intensity (a.u.) |
